Assay results: the supplement of paper PMC12823440, “Inhibitors supercharge kinase turnover through native proteolytic circuits” (Nature, 2025)
Where a name gives a salt, the structure may show the parent alone. The list shows a part of the results. The calls rarely recur for the same compound in another form.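 In K562 cells expressing nanoluciferase-fused kinases, luminescence was recorded at 4 h intervals between 2 and 18 h, normalized as percent of control with DMSO at 100% and a positive control at 0%. A significant (2 sigma) signal drop marks a time point as decreased. The authors' rule for a hit is not shown and takes in more than the number of time points.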

Protein sequences, listed by entry. Tags and fused reporters are not part of them. Lines headed by an entry give the natural chain unless they say otherwise; changes in a name come on top.
UniProt P07948: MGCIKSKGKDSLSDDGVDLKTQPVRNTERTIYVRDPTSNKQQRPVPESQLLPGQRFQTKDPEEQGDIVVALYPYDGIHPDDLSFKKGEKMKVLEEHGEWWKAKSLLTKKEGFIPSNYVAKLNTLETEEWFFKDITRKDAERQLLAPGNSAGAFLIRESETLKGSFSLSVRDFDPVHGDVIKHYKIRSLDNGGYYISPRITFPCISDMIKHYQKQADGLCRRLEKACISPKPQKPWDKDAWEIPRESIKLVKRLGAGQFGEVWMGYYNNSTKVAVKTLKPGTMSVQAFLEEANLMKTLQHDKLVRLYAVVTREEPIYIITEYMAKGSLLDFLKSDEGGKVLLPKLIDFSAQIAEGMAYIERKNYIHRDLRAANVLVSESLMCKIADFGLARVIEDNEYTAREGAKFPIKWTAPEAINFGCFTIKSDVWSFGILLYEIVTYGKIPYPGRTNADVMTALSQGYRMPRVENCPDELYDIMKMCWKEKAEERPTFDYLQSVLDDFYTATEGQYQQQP
UniProt Q12851: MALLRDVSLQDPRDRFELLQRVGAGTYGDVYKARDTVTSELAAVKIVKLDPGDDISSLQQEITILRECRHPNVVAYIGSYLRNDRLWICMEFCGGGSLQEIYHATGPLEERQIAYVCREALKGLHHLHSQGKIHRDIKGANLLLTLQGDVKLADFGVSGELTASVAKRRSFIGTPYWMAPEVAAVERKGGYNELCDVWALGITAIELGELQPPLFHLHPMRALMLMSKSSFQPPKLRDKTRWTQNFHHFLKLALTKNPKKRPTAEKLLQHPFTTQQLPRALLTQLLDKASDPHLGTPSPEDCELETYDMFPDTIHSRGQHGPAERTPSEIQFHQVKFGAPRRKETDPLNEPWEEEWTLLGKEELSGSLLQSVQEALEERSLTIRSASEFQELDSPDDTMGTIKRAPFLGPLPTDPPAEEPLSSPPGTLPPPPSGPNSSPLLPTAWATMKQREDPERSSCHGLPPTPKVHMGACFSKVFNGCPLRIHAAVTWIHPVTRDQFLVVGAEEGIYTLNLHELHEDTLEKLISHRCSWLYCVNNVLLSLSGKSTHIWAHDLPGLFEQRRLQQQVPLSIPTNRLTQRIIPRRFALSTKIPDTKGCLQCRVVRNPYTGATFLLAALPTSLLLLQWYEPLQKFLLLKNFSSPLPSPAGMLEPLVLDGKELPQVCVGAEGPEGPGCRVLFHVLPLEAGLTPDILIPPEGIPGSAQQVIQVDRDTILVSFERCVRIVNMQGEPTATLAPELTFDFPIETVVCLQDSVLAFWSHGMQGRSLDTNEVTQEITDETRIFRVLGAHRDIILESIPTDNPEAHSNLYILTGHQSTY
UniProt P28482, whole entry: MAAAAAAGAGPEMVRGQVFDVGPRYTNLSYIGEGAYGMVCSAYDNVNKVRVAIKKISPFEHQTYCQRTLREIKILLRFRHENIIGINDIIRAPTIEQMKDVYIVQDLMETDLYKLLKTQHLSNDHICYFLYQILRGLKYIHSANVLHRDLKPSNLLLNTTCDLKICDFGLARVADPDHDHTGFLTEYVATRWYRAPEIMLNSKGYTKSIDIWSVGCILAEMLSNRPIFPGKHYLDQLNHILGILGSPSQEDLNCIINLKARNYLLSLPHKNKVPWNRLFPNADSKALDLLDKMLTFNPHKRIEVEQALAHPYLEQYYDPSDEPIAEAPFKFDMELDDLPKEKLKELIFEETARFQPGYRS
UniProt P49137, whole entry, looked up: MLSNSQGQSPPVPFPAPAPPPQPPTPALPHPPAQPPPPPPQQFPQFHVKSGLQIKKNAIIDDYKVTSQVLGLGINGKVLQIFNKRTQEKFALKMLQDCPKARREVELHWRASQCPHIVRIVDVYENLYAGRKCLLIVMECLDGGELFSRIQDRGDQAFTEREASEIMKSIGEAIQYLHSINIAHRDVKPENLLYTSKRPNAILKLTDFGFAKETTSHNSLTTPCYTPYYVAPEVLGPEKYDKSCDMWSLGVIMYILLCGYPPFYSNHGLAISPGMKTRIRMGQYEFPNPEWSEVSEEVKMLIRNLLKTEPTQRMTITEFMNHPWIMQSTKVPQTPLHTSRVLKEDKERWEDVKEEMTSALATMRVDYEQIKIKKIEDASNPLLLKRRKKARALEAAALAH
UniProt Q9BUB5: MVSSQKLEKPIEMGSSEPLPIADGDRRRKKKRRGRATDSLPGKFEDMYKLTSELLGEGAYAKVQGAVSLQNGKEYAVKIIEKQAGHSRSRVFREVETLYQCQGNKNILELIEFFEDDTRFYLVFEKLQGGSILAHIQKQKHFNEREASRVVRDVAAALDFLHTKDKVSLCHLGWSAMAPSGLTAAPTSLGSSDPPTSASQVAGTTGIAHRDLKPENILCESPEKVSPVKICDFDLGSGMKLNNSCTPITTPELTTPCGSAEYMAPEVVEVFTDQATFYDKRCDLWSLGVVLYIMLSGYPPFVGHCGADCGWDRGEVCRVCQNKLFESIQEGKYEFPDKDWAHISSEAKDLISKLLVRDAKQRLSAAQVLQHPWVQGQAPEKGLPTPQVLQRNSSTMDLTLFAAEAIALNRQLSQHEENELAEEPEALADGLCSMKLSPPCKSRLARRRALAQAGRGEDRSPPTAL
UniProt Q16620, whole entry, looked up: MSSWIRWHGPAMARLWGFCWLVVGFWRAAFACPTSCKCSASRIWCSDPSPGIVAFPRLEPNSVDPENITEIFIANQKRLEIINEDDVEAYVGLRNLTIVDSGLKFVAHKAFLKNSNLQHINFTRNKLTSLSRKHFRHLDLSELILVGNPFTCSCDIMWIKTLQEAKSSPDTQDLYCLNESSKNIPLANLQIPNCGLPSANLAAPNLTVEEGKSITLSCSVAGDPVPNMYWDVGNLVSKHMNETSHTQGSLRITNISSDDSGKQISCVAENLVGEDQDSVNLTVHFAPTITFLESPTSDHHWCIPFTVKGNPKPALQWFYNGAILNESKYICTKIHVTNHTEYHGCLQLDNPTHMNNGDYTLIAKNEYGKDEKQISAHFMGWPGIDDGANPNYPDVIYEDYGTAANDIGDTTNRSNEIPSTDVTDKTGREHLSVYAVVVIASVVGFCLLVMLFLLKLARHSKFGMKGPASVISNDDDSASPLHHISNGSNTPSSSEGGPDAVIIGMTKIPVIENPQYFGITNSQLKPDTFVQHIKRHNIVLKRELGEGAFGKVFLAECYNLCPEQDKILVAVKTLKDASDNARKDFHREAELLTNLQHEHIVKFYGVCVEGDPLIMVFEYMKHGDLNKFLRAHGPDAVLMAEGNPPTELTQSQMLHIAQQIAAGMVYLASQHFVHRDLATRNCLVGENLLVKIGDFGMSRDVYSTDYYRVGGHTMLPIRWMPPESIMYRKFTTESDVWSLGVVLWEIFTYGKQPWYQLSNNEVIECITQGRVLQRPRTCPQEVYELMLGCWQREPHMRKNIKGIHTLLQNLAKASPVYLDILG
UniProt P09619, whole entry: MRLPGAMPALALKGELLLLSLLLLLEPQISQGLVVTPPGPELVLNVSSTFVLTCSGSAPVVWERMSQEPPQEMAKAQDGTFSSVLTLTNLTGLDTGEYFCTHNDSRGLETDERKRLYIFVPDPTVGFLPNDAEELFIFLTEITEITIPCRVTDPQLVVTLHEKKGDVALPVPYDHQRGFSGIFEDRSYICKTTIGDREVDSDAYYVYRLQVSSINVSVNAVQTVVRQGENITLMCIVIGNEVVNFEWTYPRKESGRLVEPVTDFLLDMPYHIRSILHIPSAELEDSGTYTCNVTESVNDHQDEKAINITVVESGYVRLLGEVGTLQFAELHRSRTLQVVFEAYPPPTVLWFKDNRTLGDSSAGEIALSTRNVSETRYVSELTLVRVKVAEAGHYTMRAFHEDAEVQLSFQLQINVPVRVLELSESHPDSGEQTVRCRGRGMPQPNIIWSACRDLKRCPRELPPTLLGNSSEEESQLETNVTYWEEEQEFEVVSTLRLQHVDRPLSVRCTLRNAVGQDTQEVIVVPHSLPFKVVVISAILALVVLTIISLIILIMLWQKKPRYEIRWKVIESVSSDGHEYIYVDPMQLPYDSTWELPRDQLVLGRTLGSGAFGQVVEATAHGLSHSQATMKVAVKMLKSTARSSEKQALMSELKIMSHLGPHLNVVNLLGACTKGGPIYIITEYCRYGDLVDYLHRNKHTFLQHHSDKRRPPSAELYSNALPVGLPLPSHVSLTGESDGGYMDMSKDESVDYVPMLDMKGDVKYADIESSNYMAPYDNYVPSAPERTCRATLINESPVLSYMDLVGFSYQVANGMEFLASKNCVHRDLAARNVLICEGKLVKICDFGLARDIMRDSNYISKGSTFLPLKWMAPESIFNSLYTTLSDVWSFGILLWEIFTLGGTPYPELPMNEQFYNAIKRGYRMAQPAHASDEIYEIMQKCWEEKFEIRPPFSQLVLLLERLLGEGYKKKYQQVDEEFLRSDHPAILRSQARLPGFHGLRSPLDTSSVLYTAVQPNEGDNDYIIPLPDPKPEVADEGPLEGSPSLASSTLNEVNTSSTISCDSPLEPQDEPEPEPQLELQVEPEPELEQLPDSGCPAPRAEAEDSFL
UniProt O15530: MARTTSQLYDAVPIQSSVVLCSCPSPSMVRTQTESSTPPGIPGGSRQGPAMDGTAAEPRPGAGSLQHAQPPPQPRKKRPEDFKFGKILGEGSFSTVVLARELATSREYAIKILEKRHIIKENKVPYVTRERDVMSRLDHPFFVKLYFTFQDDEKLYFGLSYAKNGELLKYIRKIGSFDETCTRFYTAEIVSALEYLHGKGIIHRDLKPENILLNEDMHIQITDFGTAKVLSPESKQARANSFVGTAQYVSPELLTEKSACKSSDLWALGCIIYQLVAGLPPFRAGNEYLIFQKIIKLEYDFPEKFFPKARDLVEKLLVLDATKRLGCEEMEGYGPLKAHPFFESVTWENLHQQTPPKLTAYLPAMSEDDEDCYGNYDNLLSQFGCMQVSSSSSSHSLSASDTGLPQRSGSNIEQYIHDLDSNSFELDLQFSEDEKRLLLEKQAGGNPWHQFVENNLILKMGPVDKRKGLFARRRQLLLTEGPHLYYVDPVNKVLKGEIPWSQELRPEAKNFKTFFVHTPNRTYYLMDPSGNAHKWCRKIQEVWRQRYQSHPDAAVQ
UniProt Q9UBF8: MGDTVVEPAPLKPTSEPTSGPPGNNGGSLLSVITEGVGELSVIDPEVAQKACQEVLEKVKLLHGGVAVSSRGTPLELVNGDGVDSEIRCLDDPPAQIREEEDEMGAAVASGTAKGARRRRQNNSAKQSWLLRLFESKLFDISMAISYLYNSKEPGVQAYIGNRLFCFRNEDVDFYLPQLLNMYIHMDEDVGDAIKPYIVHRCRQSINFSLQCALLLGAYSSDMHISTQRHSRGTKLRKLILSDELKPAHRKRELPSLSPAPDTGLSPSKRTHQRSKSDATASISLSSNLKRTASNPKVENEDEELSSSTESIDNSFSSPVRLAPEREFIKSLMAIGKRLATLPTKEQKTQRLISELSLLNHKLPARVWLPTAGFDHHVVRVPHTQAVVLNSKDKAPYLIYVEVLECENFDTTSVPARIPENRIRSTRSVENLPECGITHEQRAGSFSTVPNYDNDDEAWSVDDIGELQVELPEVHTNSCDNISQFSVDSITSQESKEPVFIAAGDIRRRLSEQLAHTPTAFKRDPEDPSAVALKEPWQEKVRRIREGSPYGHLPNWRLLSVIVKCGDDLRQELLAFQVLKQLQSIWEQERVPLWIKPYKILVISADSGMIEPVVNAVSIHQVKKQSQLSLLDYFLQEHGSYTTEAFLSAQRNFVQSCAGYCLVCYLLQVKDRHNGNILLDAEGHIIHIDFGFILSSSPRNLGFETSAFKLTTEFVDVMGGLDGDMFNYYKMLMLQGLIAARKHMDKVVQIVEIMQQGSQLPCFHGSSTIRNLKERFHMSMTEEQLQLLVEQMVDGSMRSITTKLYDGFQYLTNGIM
UniProt P53350, whole entry: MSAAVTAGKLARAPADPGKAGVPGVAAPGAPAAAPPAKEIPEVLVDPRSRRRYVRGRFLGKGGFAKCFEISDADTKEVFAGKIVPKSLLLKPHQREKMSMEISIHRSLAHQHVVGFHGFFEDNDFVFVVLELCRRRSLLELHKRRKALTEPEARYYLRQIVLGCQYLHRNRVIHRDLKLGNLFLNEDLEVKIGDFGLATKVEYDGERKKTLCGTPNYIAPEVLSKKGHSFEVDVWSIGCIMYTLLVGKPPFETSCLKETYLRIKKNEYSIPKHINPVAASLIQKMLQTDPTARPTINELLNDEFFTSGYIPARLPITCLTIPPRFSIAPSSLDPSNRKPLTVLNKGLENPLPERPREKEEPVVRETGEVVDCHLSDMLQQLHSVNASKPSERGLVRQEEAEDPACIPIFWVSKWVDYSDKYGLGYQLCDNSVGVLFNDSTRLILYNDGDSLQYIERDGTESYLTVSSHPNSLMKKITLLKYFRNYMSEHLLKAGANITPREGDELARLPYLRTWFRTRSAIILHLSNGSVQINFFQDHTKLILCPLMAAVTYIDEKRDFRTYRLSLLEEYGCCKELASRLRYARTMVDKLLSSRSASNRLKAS

Key:
Assay in all cases: number of time points (of 5) at which kinase-Nluc abundance scored as decreased, DMSO-normalised (count); higher = more persistent destabilization
Details in all cases: K562; 2-18 h
[1] = target: LMTK2 (UniProt Q8IWU2)
[2] = target: LYN (UniProt P07948)
[3] = target: MAP2K1 (UniProt Q02750)
[4] = target: MAP2K2 (UniProt P36507)
[5] = target: MAP4K2 (UniProt Q12851)
[6] = target: MAPK1 (UniProt P28482)
[7] = target: MAPK4 (UniProt P31152)
[8] = target: MAPKAPK2 (UniProt P49137)
[9] = target: MKNK1 (UniProt Q9BUB5)
[10] = target: NTRK2 (UniProt Q16620)
[11] = target: NTRK3 (UniProt Q16288)
[12] = target: PAK4 (UniProt O96013)
[13] = target: PBK (UniProt Q96KB5)
[14] = target: PDGFRB (UniProt P09619)
[15] = target: PDK1 (UniProt Q15118)
[16] = target: PDPK1 (UniProt O15530)
[17] = target: PIK4CA (UniProt P42356)
[18] = target: PIK4CB (UniProt Q9UBF8)
[19] = target: PLK1 (UniProt P53350)
[20] = target: PRKAA1 (UniProt Q13131)

Row | SMILES | number of time points [1] | number of time points [2] | number of time points [3] | number of time points [4] | number of time points [5] | number of time points [6] | number of time points [7] | number of time points [8] | number of time points [9] | number of time points [10] | number of time points [11] | number of time points [12] | number of time points [13] | number of time points [14] | number of time points [15] | number of time points [16] | number of time points [17] | number of time points [18] | number of time points [19] | number of time points [20]
1 | COc1cc(-c2cc(-c3cc(OC)c(OC)c(OC)c3)cc(C(F)P(=O)(OCOC(=O)C(C)(C)C)OCOC(=O)C(C)(C)C)c2)cc(OC)c1OC (stereo not given) [Stafia-1-dipivaloyloxymethyl ester] (2.5 µM) | 0 | 0 | 0 | 0 | 0 | 0 | 0 | 0 | 0 | 0 | 0 | 0 | 0 | 0 | 0 | 0 | 0 | 0 | 0 | 0
2 | CC(=O)Nc1nc2ccc(-c3cnc(C)c(NC(=O)OC4CCCCC4)c3)cc2s1 (10 µM) | 0 | 0 | 0 | 0 | 0 | 0 | 0 | 0 | 0 | 0 | 0 | 0 | 0 | 0 | 0 | 0 | 0 | 0 | 0 | 0
3 | CN(CC(=O)N(Cc1ccc(C2CCCCC2)cc1)c1ccc(C(=O)O)c(O)c1)S(=O)(=O)c1c(F)c(F)c(F)c(F)c1F (2.5 µM) | 0 | 0 | 0 | 0 | 0 | 0 | 0 | 0 | 0 | 0 | 0 | 0 | 0 | 0 | 0 | 0 | 0 | 0 | 0 | 0
4 | COc1c(O)cc2oc3cc(O)c(CC=C(C)C)c(O)c3c(=O)c2c1CCC(C)(C)O [Garcinone D] (2.5 µM) | 0 | 0 | 0 | 0 | 0 | 0 | 0 | 0 | 0 | 0 | 0 | 0 | 0 | 0 | 0 | 0 | 0 | 0 | 0 | 0
5 | CN(C)C(=O)c1ccc(S(=O)(=O)c2ccc(NC(=O)[C@@](C)(O)C(F)(F)F)c(Cl)c2)cc1 (10 µM) | 2 | 0 | 0 | 0 | 0 | 0 | 0 | 0 | 0 | 0 | 0 | 0 | 0 | 0 | 0 | 1 | 0 | 0 | 0 | 0
6 | O=c1[nH]ccc2cc(OC3CCNCC3)ccc12 (10 µM) | 0 | 0 | 0 | 0 | 0 | 0 | 0 | 0 | 0 | 0 | 0 | 0 | 0 | 0 | 0 | 0 | 0 | 0 | 0 | 0
7 | NS(=O)(=O)c1ccc(N2N=C(c3ccccc3)CC2c2ccccc2)cc1 (stereo not given) (10 µM) | 0 | 0 | 0 | 0 | 0 | 0 | 0 | 0 | 0 | 0 | 0 | 0 | 0 | 0 | 0 | 0 | 0 | 0 | 0 | 0
8 | O=C(Nc1cccc(-c2nncn2C2CC2)c1)c1cc(-n2cnc(C3CC3)c2)ccn1 (10 µM) | 0 | 0 | 0 | 0 | 0 | 0 | 0 | 0 | 0 | 0 | 0 | 0 | 0 | 0 | 0 | 0 | 0 | 0 | 0 | 0
9 | Nc1n[nH]c2cc(-c3ccc(=O)n(Cc4cccc(Cl)c4)c3)ccc12 (10 µM) | 0 | 0 | 0 | 0 | 0 | 0 | 0 | 0 | 0 | 0 | 0 | 0 | 0 | 0 | 0 | 0 | 0 | 0 | 0 | 0
10 | CC(C)c1ccc(CC(=O)N2CCN(c3ccc(C#N)nn3)CC2)cc1 (10 µM) | 0 | 0 | 0 | 0 | 0 | 0 | 0 | 0 | 0 | 0 | 0 | 0 | 0 | 0 | 0 | 0 | 0 | 0 | 0 | 0
11 | CC[C@@H]1[C@H](F)C(=O)N[C@@H]1COc1nccc2cc(C(N)=O)c(OC)cc12 (10 µM) | 0 | 0 | 0 | 0 | 0 | 0 | 0 | 0 | 0 | 0 | 0 | 0 | 0 | 0 | 0 | 0 | 0 | 0 | 0 | 0
12 | COC(=O)[C@@]1(C)CC[C@]2(C(=O)O)CC[C@]3(C)C(=CC[C@@H]4[C@@]5(C)C[C@H](O)[C@H](O[C@@H]6OC[C@@H](O[C@@H]7O[C@H](CO)[C@@H](O)[C@H](O)[C@H]7O)[C@H](O)[C@H]6O)[C@@](C)(CO)[C@@H]5CC[C@]43C)[C@@H]2C1 [Esculentoside A] (10 µM) | 0 | 0 | 0 | 0 | 0 | 0 | 0 | 0 | 0 | 0 | 0 | 0 | 0 | 0 | 0 | 0 | 0 | 0 | 0 | 0
13 | O=S(=O)(c1cccc2cnccc12)N1CCNCC1 (10 µM) | 0 | 0 | 0 | 0 | 0 | 0 | 0 | 0 | 0 | 0 | 0 | 0 | 0 | 0 | 0 | 0 | 0 | 0 | 0 | 0
14 | COC1(C(=O)N[C@@H](C)c2ccc(-n3cc(F)cn3)nc2)CCC(c2nc(C)cc(Nc3cc(C)[nH]n3)n2)CC1 (stereo partly drawn) [trans-Pralsetinib] (2.5 µM) | 0 | 0 | 0 | 0 | 0 | 0 | 0 | 0 | 0 | 0 | 0 | 0 | 0 | 0 | 0 | 0 | 0 | 0 | 0 | 0
15 | CC(C)C[C@H](NC(=O)[C@H](CCCCN)NC(=O)[C@H](CO)NC(=O)[C@@H](N)CC(C)C)C(N)=O [LSKL, Inhibitor of Thrombospondin (TSP-1) (TFA)] (10 µM) | 0 | 0 | 0 | 0 | 0 | 0 | 0 | 0 | 0 | 0 | 0 | 0 | 0 | 0 | 0 | 0 | 0 | 0 | 0 | 0
16 | CCOc1c([C@H](C)n2nc(C)c3c(N)ncnc32)cc(Cl)c(F)c1[C@@H]1CNC(=O)C1 [Parsaclisib (hydrochloride)] (10 µM) | 0 | 0 | 0 | 0 | 0 | 0 | 0 | 0 | 0 | 0 | 0 | 0 | 0 | 0 | 0 | 0 | 0 | 0 | 0 | 0
17 | COc1cnccc1Nc1nc(-c2nn(Cc3c(F)cc(OCCO)cc3F)c3ccccc23)ncc1OC (10 µM) | 0 | 0 | 0 | 0 | 0 | 0 | 0 | 0 | 0 | 0 | 0 | 0 | 0 | 0 | 0 | 0 | 0 | 0 | 0 | 0
18 | C[C@H]1Cc2ccccc2N1C(=O)Cc1nc(N2CCOCC2)cc(=O)[nH]1 (2.5 µM) | 0 | 0 | 0 | 0 | 0 | 0 | 0 | 0 | 0 | 0 | 0 | 0 | 0 | 0 | 0 | 0 | 0 | 0 | 0 | 0
19 | CC1=C(C(=O)Nc2ccc3[nH]ncc3c2)C(c2ccc(F)cc2)NC(=O)N1 (stereo not given) (10 µM) | 0 | 0 | 0 | 0 | 0 | 0 | 0 | 0 | 0 | 0 | 0 | 0 | 0 | 0 | 0 | 0 | 0 | 0 | 0 | 0
20 | Cn1cc(-c2cc3c(N4CCN(c5ncc([C@@](C)(N)c6ccc(F)cc6)cn5)CC4)ncnn3c2)cn1 [Avapritinib] (2.5 µM) | 0 | 0 | 0 | 0 | 0 | 0 | 0 | 0 | 0 | 0 | 0 | 0 | 0 | 0 | 0 | 0 | 0 | 0 | 0 | 0
21 | CCN1C(=O)CNc2ncc(-c3ccc(-c4nc[nH]n4)nc3C)nc21 [CC-115 (hydrochloride)] (2.5 µM) | 1 | 2 | 0 | 0 | 0 | 0 | 0 | 0 | 4 | 3 | 3 | 0 | 0 | 2 | 0 | 4 | 2 | 2 | 3 | 3
22 | CCCCOc1ccc(CC/C=C2\SC(=O)N(CCN)C2=O)cc1 [K145 (hydrochloride)] (2.5 µM) | 0 | 0 | 0 | 0 | 0 | 0 | 0 | 0 | 0 | 0 | 0 | 0 | 0 | 0 | 0 | 0 | 0 | 0 | 0 | 0
23 | CNC(=O)c1ccc(-c2cnc3cnc(-c4ccccc4)cn23)cc1 (10 µM) | 0 | 0 | 0 | 0 | 0 | 0 | 0 | 0 | 0 | 0 | 0 | 0 | 0 | 0 | 0 | 0 | 0 | 0 | 0 | 0
24 | COc1ccccc1/C=C1\C(=O)Nc2ccccc21 (10 µM) | 0 | 0 | 0 | 0 | 0 | 0 | 0 | 0 | 0 | 0 | 0 | 0 | 0 | 0 | 0 | 0 | 0 | 0 | 0 | 0

Full records as entered above. Values in the order: number of time points [1]	number of time points [2]	number of time points [3]	number of time points [4]	number of time points [5]	number of time points [6]	number of time points [7]	number of time points [8]	number of time points [9]	number of time points [10]	number of time points [11]	number of time points [12]	number of time points [13]	number of time points [14]	number of time points [15]	number of time points [16]	number of time points [17]	number of time points [18]	number of time points [19]	number of time points [20]
CCCCOc1ccc(CC/C=C2\SC(=O)N(CCN)C2=O)cc1 [K145 (hydrochloride)] (2.5 µM) in the list: 0	0	0	0	0	0	0	0	0	0	0	0	0	0	0	0	0	0	0	0
CCN1C(=O)CNc2ncc(-c3ccc(-c4nc[nH]n4)nc3C)nc21 [CC-115 (hydrochloride)] (2.5 µM) in the list: 1	2	0	0	0	0	0	0	4	3	3	0	0	2	0	4	2	2	3	3
